PubChem BioAssay AID1259254, NCATS | 2017

- Test: 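Genome-wide screen for genes that prevent DNA re-replication in cancer cells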 (primary screen)
- Cells: human HCT116 colorectal cancer cells
- Reagent: single siRNA against human genes
- Time to read-out: 3 days
- Measurement: 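Nuclei stained with Hoechst and imaged; cell-cycle phase assigned by DNA content; G2 share scaled per plate, non-targeting siRNA 0%, GMNN siRNA 100%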
- Direction: G2 robust z-score and G2 cells, % of GMNN control: higher = more G2 cells, more excess DNA replication; raw share of cells in G2: higher = larger share of cells with G2 DNA content
- Call rule: 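Active siRNAs have a G2 robust z of 5 or more median absolute deviations over the median, which in these data means about 38% or higher of GMNN control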
The deposit covers about 59,000 reagents; below is an unselected part. About 1,550 of them (2.6%) count as active. 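G2 share is only a proxy for re-replication; each gene was hit by three separate siRNAs, and active genes were retested.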 Raw values vary from plate to plate and are shown uncorrected. A number with no mark means an inactive call. Reagents against one gene are numbered here. No sequences are given here. Not stated in the record: the amount of reagent.

The opening 6 records as a preview:
target gene,reagent,G2 robust z-score,"G2 cells, % of GMNN control",raw share of cells in G2 (%)
TBK1 (GeneID 29110),1,0.139,3.95,6.91
TBK1 (GeneID 29110),2,0.0861,3.57,6.61
TBK1 (GeneID 29110),3,-1,-4.07,2.59
FBXW7 (GeneID 55294),1,0.267,4.84,6.35
FBXW7 (GeneID 55294),2,-0.196,1.59,5.01
FBXW7 (GeneID 55294),3,-1.1,-4.75,4.35

The listing, from the start:
target gene,reagent,G2 robust z-score,"G2 cells, % of GMNN control",raw share of cells in G2 (%)
TBK1 (GeneID 29110),1,0.139,3.95,6.91
TBK1 (GeneID 29110),2,0.0861,3.57,6.61
TBK1 (GeneID 29110),3,-1,-4.07,2.59
FBXW7 (GeneID 55294),1,0.267,4.84,6.35
FBXW7 (GeneID 55294),2,-0.196,1.59,5.01
FBXW7 (GeneID 55294),3,-1.1,-4.75,4.35
PACRGL (GeneID 133015),1,0.785,8.49,7.38
PACRGL (GeneID 133015),2,0.389,5.7,4.91
PACRGL (GeneID 133015),3,-0.15,1.91,3.27
AIF1L (GeneID 83543),1,0.262,4.81,5.71
AIF1L (GeneID 83543),2,0.308,5.13,4.98
AIF1L (GeneID 83543),3,-0.339,0.584,2.58
LTN1 (GeneID 26046),1,0.354,5.46,8.64
LTN1 (GeneID 26046),2,-0.354,0.474,4.34
LTN1 (GeneID 26046),3,-0.392,0.206,4.06
SVIL (GeneID 6840),1,-1.9,-10.4,2.18
SVIL (GeneID 6840),2,-0.768,-2.44,3.71
SVIL (GeneID 6840),3,-0.808,-2.72,3.06
HRH4 (GeneID 59340),1,-0.494,-0.506,5.66
HRH4 (GeneID 59340),2,1.56,13.9,9.39
HRH4 (GeneID 59340),3,-0.247,1.23,3.65
MAPKAP1 (GeneID 79109),1,3.41,26.9,13.9
MAPKAP1 (GeneID 79109),2,1.03,10.2,7.93
MAPKAP1 (GeneID 79109),3,-0.0554,2.58,6.71
NECTIN2 (GeneID 5819),1,2.36,19.6,11.7
NECTIN2 (GeneID 5819),2,-0.84,-2.94,3.56
NECTIN2 (GeneID 5819),3,-0.779,-2.51,3.31
PCLO (GeneID 27445),1,1.13,10.9,11.1
PCLO (GeneID 27445),2,1.42,12.9,8.49
PCLO (GeneID 27445),3,-0.51,-0.618,3.79
SPACA1 (GeneID 81833),1,-1.35,-6.51,1.94
SPACA1 (GeneID 81833),2,1.51,13.6,7.49
SPACA1 (GeneID 81833),3,-0.455,-0.234,2.33
TRIM60 (GeneID 166655),1,-0.0684,2.49,7.14
TRIM60 (GeneID 166655),2,0.0401,3.25,5.89
TRIM60 (GeneID 166655),3,0.549,6.83,7.57
C10orf120 (GeneID 399814),1,-0.695,-1.92,3.11
C10orf120 (GeneID 399814),2,0.632,7.42,6.46
C10orf120 (GeneID 399814),3,0.211,4.45,6.64
CIB2 (GeneID 10518),1,13.2 (active),95.7,35.9
CIB2 (GeneID 10518),2,0.637,7.45,6.55
CIB2 (GeneID 10518),3,-1.06,-4.48,2.15
LTBP4 (GeneID 8425),1,4.22,32.7,16.4
LTBP4 (GeneID 8425),2,-0.505,-0.589,5.06
LTBP4 (GeneID 8425),3,0.283,4.96,6.79
OTX2 (GeneID 5015),1,-1.09,-4.69,1.6
OTX2 (GeneID 5015),2,0.0152,3.07,6.37
OTX2 (GeneID 5015),3,-0.484,-0.435,4.57
PRM1 (GeneID 5619),1,10.3 (active),75.3,37
PRM1 (GeneID 5619),2,-0.237,1.3,4.73
PRM1 (GeneID 5619),3,0.11,3.74,4.71
SBK1 (GeneID 388228),1,1.8,15.6,10.4
SBK1 (GeneID 388228),2,-0.694,-1.92,4.49
SBK1 (GeneID 388228),3,3.03,24.3,11.5
SKA3 (GeneID 221150),1,0.154,4.05,5.05
SKA3 (GeneID 221150),2,-0.0572,2.57,4.01
SKA3 (GeneID 221150),3,0.514,6.58,5.29
ZNF665 (GeneID 79788),1,0.717,8.01,5.62
ZNF665 (GeneID 79788),2,0.898,9.29,10.1
ZNF665 (GeneID 79788),3,-0.323,0.697,3.85
PDS5B (GeneID 23047),1,0.124,3.84,6.49
PDS5B (GeneID 23047),2,1.13,10.9,8.65
PDS5B (GeneID 23047),3,0.646,7.51,5.98
LAT (GeneID 27040),1,1.1,10.7,7.94
LAT (GeneID 27040),2,3.47,27.4,14.9
LAT (GeneID 27040),3,2.42,20,9.56
RNF144A (GeneID 9781),1,-0.603,-1.28,4.72
RNF144A (GeneID 9781),2,-1.14,-5.06,1.47
RNF144A (GeneID 9781),3,-0.157,1.86,5.51
THAP2 (GeneID 83591),1,0.403,5.8,6.94
THAP2 (GeneID 83591),2,-0.0803,2.4,5.06
THAP2 (GeneID 83591),3,6.96 (active),52,27.1
GM2A (GeneID 2760),1,0.958,9.71,9.85
GM2A (GeneID 2760),2,-0.728,-2.15,3.3
GM2A (GeneID 2760),3,4.7,36,17.6
SGSM1 (GeneID 129049),1,-1.02,-4.23,2.58
SGSM1 (GeneID 129049),2,0.779,8.45,5.78
SGSM1 (GeneID 129049),3,-0.16,1.85,3.25
HEY2 (GeneID 23493),1,2.13,18,13.6
HEY2 (GeneID 23493),2,-0.482,-0.421,4.01
HEY2 (GeneID 23493),3,-0.675,-1.78,3.26
RNF214 (GeneID 257160),1,2.56,21,11.3
RNF214 (GeneID 257160),2,1.62,14.4,8.6
RNF214 (GeneID 257160),3,-0.0952,2.3,3.97
PABIR2 (GeneID 159090),1,-1.35,-6.5,1.27
PABIR2 (GeneID 159090),2,0.366,5.54,4.82
PABIR2 (GeneID 159090),3,-0.377,0.316,2.86
